This is one part of the list.
How the values were obtained:
Test in all cases: log2 fold change, soluble protein after heating vs DMSO (PISA); higher = thermal stabilisation; K562 lysate, 10 uM; active = over 0.2 and 3.5 SD of the protein, either way, in both replicates (recomputed)
[1] = compound: CN1CC[C@H](c2c(O)cc(O)c3c(=O)cc(-c4ccccc4Cl)oc23)[C@H](O)C1 [alvocidib]
Outline: (§1)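 To prepare the extract, K562 pellets were dounce-homogenised in PBS pH 7.4 with 1 mM MgCl2, giving crude material at 1 mg/mL protein. This was treated with 10 μM compound for 30 min, then heated in aliquots for 3 min over 48°C-58°C before pooling and addition of NP-40 to 0.5% at 4°C. Centrifugation at 21,000xg for 90 min left soluble protein in the supernatant, which TMTpro 16plex LC-MS/MS quantified with equalised channel sums. Results are log-two fold changes in thermal stability compared with solvent controls, from duplicates.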

Amino acid sequences for entries named in this document (tags omitted). A change or cut given only in a name is not applied to a line headed by its entry.
UniProt Q5I7T1: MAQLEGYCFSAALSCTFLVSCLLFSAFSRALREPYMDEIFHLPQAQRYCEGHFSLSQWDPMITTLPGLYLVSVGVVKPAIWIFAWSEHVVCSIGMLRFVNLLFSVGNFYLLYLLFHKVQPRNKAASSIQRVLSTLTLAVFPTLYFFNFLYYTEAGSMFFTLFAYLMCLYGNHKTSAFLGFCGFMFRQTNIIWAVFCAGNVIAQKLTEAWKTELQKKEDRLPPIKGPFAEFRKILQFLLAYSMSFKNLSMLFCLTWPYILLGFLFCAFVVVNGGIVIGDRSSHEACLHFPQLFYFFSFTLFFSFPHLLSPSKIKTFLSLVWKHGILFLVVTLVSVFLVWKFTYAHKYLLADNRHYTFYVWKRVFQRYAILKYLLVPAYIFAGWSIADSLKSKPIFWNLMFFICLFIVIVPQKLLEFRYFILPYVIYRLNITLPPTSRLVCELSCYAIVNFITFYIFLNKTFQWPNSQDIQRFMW
UniProt P53677: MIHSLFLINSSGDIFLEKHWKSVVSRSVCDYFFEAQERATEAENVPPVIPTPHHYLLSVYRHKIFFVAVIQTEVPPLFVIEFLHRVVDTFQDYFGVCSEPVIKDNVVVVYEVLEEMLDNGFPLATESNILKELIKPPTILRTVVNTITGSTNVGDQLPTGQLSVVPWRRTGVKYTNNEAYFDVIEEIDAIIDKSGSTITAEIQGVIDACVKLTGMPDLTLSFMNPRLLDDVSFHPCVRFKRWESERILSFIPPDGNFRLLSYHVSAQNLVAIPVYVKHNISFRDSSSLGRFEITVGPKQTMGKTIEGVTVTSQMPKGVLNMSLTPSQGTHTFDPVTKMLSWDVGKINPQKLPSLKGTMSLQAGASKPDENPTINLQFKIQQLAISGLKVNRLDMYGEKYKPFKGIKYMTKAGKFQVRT
UniProt Q2TAA5: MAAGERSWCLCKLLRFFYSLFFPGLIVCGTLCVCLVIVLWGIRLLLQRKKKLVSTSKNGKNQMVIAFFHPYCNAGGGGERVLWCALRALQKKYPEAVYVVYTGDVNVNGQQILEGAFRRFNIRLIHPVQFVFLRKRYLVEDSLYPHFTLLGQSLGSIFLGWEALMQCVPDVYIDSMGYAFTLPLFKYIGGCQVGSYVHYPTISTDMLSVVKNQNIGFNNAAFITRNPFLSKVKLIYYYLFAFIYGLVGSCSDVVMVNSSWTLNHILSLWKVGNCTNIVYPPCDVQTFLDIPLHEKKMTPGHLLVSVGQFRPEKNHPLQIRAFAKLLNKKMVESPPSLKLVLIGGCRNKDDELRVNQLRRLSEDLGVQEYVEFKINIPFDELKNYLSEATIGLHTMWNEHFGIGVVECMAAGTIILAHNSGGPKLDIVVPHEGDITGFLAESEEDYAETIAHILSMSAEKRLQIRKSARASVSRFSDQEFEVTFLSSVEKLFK
UniProt Q01484: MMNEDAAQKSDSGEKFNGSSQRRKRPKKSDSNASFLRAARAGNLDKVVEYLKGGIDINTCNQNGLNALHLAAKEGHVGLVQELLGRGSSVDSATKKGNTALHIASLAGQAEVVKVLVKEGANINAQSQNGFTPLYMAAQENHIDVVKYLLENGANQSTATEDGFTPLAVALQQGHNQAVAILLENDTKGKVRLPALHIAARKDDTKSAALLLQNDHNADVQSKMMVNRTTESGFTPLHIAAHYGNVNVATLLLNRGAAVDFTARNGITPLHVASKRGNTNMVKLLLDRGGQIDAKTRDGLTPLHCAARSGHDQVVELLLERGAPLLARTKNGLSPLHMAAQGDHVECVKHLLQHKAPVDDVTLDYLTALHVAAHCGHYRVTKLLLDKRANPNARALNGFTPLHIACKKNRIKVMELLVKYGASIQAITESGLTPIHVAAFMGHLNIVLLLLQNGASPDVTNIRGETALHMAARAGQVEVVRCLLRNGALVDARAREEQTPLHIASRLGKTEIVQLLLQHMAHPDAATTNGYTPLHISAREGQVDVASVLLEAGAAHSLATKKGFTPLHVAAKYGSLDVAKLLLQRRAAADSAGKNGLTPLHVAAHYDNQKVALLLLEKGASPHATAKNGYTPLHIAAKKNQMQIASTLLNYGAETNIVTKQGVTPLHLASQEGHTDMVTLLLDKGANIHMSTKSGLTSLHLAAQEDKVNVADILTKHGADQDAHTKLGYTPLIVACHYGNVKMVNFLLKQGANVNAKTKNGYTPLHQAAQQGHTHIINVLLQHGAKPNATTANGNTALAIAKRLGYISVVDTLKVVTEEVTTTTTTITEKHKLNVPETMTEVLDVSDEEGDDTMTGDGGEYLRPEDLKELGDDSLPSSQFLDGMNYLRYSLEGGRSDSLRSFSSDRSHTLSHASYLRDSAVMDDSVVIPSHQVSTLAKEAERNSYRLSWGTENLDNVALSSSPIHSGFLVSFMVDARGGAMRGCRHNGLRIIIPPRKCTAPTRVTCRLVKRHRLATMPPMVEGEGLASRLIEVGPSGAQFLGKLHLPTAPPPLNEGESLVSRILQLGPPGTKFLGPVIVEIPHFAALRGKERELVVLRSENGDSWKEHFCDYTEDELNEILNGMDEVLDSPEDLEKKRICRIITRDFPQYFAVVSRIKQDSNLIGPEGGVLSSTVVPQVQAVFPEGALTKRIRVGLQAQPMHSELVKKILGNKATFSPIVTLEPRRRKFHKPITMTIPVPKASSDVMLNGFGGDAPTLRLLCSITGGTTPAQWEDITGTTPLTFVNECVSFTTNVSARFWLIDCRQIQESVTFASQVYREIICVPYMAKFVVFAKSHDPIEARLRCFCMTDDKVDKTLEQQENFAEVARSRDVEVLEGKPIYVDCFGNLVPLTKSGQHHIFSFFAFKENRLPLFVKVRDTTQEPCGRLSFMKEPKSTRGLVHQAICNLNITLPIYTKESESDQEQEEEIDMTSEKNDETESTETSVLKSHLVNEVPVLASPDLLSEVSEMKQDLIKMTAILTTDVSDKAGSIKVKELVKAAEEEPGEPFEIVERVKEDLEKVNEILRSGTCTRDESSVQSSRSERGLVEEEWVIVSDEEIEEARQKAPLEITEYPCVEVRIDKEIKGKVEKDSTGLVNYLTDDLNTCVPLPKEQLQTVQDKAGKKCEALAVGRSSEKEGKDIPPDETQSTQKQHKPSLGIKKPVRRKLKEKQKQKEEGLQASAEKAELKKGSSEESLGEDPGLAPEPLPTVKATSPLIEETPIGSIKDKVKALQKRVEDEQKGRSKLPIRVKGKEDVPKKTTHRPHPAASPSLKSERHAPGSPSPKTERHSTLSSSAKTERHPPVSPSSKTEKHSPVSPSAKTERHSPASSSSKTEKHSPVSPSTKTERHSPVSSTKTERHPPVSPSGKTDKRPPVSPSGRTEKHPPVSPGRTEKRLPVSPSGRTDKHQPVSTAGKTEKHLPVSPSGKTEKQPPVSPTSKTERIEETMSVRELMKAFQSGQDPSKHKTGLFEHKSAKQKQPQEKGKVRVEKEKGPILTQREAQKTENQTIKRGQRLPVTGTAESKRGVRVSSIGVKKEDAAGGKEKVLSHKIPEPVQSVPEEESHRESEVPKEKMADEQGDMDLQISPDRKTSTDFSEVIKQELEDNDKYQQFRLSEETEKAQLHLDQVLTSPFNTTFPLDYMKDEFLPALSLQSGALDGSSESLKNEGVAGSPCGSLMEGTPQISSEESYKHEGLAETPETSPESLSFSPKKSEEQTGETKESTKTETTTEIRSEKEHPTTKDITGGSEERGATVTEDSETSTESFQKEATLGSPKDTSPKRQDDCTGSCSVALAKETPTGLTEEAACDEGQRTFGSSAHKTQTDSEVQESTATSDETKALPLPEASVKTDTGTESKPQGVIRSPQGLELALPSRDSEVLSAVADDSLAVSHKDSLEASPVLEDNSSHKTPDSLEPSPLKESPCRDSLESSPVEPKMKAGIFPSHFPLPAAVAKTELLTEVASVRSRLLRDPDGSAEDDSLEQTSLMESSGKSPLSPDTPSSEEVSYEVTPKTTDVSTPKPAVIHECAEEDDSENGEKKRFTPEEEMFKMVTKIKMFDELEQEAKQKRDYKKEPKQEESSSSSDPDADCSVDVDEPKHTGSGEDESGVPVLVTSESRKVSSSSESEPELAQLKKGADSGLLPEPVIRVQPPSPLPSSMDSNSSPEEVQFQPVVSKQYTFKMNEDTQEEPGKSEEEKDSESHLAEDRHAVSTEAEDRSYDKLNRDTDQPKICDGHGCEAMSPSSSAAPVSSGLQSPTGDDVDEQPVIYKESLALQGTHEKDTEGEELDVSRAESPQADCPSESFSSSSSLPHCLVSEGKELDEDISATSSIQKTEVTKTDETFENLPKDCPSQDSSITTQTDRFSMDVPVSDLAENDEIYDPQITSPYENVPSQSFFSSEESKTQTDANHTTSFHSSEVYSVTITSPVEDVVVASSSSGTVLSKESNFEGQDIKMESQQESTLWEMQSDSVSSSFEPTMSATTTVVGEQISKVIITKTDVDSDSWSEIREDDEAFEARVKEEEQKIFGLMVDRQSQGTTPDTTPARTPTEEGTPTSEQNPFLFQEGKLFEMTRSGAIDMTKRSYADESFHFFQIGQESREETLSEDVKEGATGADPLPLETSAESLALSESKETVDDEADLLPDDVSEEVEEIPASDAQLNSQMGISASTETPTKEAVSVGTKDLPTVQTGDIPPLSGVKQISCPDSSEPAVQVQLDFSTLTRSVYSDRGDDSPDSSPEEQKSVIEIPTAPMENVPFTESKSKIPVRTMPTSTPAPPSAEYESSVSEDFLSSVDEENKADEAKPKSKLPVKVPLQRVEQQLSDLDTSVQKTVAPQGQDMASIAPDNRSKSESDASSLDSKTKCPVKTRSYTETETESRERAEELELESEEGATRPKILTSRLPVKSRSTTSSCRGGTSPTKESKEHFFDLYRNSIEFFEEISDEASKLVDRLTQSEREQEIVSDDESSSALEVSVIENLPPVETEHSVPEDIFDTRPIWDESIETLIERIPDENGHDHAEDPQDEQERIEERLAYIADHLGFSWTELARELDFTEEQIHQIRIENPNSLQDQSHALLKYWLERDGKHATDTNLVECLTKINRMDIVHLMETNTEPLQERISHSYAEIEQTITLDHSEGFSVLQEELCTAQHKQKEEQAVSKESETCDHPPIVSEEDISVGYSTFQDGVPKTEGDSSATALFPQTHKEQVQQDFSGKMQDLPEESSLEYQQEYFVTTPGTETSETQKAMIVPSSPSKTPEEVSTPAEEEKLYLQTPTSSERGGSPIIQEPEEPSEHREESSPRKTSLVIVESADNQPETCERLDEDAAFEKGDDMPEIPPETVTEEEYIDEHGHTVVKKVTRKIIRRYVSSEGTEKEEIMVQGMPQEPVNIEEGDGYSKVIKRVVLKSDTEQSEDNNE
UniProt O75342: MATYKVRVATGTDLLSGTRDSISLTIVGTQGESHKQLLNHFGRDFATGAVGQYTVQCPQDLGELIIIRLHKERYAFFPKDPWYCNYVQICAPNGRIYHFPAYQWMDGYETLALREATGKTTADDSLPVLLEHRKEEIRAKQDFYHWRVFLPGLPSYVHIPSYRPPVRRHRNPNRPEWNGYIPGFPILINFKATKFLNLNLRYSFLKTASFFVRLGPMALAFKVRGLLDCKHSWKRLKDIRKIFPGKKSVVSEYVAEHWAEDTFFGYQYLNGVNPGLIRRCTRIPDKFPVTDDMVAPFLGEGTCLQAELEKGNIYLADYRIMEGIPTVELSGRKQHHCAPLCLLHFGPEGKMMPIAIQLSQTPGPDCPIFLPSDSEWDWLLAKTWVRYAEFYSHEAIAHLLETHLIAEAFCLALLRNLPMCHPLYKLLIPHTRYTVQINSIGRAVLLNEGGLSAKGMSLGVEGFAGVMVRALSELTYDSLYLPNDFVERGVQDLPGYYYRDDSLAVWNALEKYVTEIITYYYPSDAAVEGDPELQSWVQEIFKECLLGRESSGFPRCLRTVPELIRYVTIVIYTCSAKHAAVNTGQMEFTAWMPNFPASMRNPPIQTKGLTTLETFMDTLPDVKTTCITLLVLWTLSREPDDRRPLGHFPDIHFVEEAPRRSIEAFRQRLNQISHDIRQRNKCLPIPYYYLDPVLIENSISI
UniProt P27216: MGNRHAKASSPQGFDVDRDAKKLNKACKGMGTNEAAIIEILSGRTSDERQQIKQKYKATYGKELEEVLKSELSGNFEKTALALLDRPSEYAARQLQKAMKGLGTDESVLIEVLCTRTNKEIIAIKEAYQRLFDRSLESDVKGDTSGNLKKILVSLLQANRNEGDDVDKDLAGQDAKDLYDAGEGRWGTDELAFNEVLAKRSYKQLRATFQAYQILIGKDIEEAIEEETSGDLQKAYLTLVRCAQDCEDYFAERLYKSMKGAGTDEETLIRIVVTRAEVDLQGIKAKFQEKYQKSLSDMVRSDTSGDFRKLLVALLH

[2] = compound: CN1CCc2c(c3ccccc3n2Cc2ccc(C(=O)NO)cc2)C1 [Tubastatin A]
Outline: as §1

[3] = compound: CNC(=O)C1=CC=CC=C1NC2=NC(=NC=C2Cl)NC3=C(C=C(C=C3)N4CCOCC4)OC
Outline: as §1

[4] = compound: CNC(=O)c1ccc(Nc2ncc(C(F)(F)F)c(NCc3nccnc3N(C)S(C)(=O)=O)n2)cc1 [defactinib]
Outline: as §1

[5] = compound: CNc1nc(-c2ccc3c(N)n[nH]c3c2)cc(N2C[C@@H](C(=O)NC3CCCCC3)CC[C@H]2C)n1
Outline: as §1

[6] = compound: COC(=O)N[C@@H](C)CNc1nccc(-c2cn(C(C)C)nc2-c2cc(Cl)cc(NS(C)(=O)=O)c2F)n1 [encorafenib]
Outline: as §1

[7] = compound: COC(=O)[C@H](CCSC)NC(=O)C1=C(C=C(C=C1)NC[C@H](CS)N)C2=CC=CC=C2
Outline: as §1

[8] = compound: COc1cc2nc(-c3cc(F)ccc3O)nc(N[C@@H]3CNC[C@H]3C(C)(C)O)c2cc1OC
Outline: as §1

[9] = compound: CS(=O)(=O)CCNCc1ccc(-c2ccc3ncnc(Nc4ccc(OCc5cccc(F)c5)c(Cl)c4)c3c2)o1 [lapatinib]
Outline: as §1

[10] = compound: CS(=O)(=O)N1CCN(Cc2cc3nc(-c4cccc5[nH]ncc45)nc(N4CCOCC4)c3s2)CC1 [pictilisib]
Outline: as §1

[11] = compound: C[C@@H](Oc1cc(-c2cnn(C3CCNCC3)c2)cnc1N)c1c(Cl)ccc(F)c1Cl [crizotinib]
Outline: as §1

[12] = compound: C[C@H](C1=CC=C(C=C1)C(=O)NC2=C3C=CNC3=NC=C2)N
Outline: as §1

[13] = compound: C[C@H](Nc1ncnc2nc[nH]c12)c1cc2cccc(Cl)c2c(=O)n1-c1ccccc1 [duvelisib]
Outline: as §1

[14] = compound: Cc1cc(Nc2cc(CN3CCOCC3)c3nc(C)c(Cc4ccc(Cl)cc4F)n3n2)n[nH]1 [gandotinib]
Outline: as §1

[15] = compound: Cc1cc(Nc2cc(N3CCN(C)CC3)nc(Sc3ccc(NC(=O)C4CC4)cc3)n2)n[nH]1 [tozasertib]
Outline: as §1

[16] = compound: Cc1ccc(-n2nc(C(C)(C)C)cc2NC(=O)Nc2ccc(OCCN3CCOCC3)c3ccccc23)cc1 [doramapimod]
Outline: as §1

[17] = compound: Cc1ccc(NC(=O)c2ccc(CN3CC[C@H](N(C)C)C3)c(C(F)(F)F)c2)cc1Nc1nccc(-c2cncnc2)n1 [bafetinib]
Outline: as §1

[18] = compound: Cc1cccc(CC(=O)N2CCc3c2ccc(-c2cn(C)c4ncnc(N)c24)c3F)n1
Outline: as §1

[19] = compound: COc1cc(Nc2ncc3c(n2)-c2ccc(Cl)cc2C(c2c(F)cccc2OC)=NC3)ccc1C(=O)O [alisertib]
Outline: as §1

[20] = compound: COc1cc2ncnc(Nc3ccc(F)c(Cl)c3)c2cc1OCCCN1CCOCC1 [gefitinib]
Outline: as §1

| Target | log2 fold change [1] | log2 fold change [2] | log2 fold change [3] | log2 fold change [4] | log2 fold change [5] | log2 fold change [6] | log2 fold change [7] | log2 fold change [8] | log2 fold change [9] | log2 fold change [10] | log2 fold change [11] | log2 fold change [12] | log2 fold change [13] | log2 fold change [14] | log2 fold change [15] | log2 fold change [16] | log2 fold change [17] | log2 fold change [18] | log2 fold change [19] | log2 fold change [20] |
| --- | --- | --- | --- | --- | --- | --- | --- | --- | --- | --- | --- | --- | --- | --- | --- | --- | --- | --- | --- | --- |
| ALG3 (UniProt Q92685) | inactive: -0.04 | inactive: -0.009 | inactive: -0.436 | inactive: 0.165 | inactive: -0.043 | inactive: -0.061 | inactive: 0.171 | inactive: -0.033 | inactive: -0.069 | inactive: 0.031 | inactive: -0.057 | inactive: -0.15 | inactive: -0.104 | inactive: 0 | inactive: -0.04 | inactive: 0.037 | inactive: -0.061 | inactive: 0.261 |  |  |
| ALG10B (UniProt Q5I7T1) | inactive: 0.117 | inactive: 0.016 | inactive: 0.029 |  | inactive: -0.086 |  |  | inactive: 0.046 | inactive: -0.014 | inactive: -0.024 | inactive: 0.053 | inactive: -0.046 | inactive: 0.014 | inactive: -0.034 |  | inactive: -0.055 | inactive: -0.057 | inactive: 0.175 | inactive: 0.083 | inactive: 0.038 |
| ANKRD44 isoform 2 (UniProt Q8N8A2) | inactive: -0.688 |  | inactive: 0.075 | inactive: -0.129 |  | inactive: -0.048 | inactive: 0.103 | inactive: 0.119 | inactive: -0.004 | inactive: 0.046 |  | active: -1.57 |  | inactive: 0.465 | inactive: 0.12 |  | inactive: -0.405 | active: 0.766 | inactive: 0.2 | inactive: 0.169 |
| ANKRD10 (UniProt Q9NXR5) | inactive: 0.003 | inactive: -0.037 | inactive: 0.018 | inactive: 0.012 | inactive: -0.016 |  |  | inactive: 0.035 | inactive: -0.074 | inactive: 0.184 | inactive: 0.017 | inactive: -0.032 | inactive: -0.052 | inactive: -0.088 |  | inactive: -0.079 | inactive: -0.112 | inactive: 0.007 | inactive: -0.018 | inactive: -0.047 |
| AP3M2 (UniProt P53677) | inactive: -0.017 | inactive: 0.12 | inactive: 0.071 | inactive: 0.048 | inactive: 0.016 | inactive: -0.024 | inactive: 0.169 | inactive: -0.024 | inactive: -0.029 | inactive: 0.1 |  | inactive: 0.005 | inactive: 0.014 | inactive: 0.079 | inactive: -0.168 |  | inactive: 0.077 | inactive: 0.052 |  |  |
| ALG11 (UniProt Q2TAA5) | inactive: 0.126 | inactive: 0.081 | inactive: 0.113 |  | inactive: -0.069 |  |  |  |  | inactive: 0.157 | inactive: 0.066 | inactive: 0.04 | inactive: 0.083 | inactive: 0.133 |  | inactive: 0.036 | inactive: -0.113 | inactive: -0.01 | inactive: -0.122 | inactive: -0.036 |
| ANGEL1 (UniProt Q9UNK9) | inactive: -0.048 | inactive: 0.25 |  |  |  |  |  |  |  |  | inactive: -0.01 | inactive: 0.053 |  | inactive: 0.075 |  | inactive: -0.113 |  | inactive: -0.159 | inactive: -0.113 | inactive: -0.135 |
| ANK2 (UniProt Q01484) | inactive: 0.098 | inactive: 0.038 |  |  | inactive: 0.128 |  |  |  |  | inactive: 0.149 | inactive: -0.018 | inactive: 0.019 | inactive: 0 | inactive: -0.224 |  | inactive: -0.064 | inactive: 0.223 | inactive: -0.018 | inactive: 0.062 | inactive: -0.02 |
| ALOX12B (UniProt O75342) | inactive: -0.099 | inactive: 0.159 | inactive: -0.026 |  |  |  |  |  |  | inactive: 0.017 | inactive: 0.148 | inactive: -0.102 |  | inactive: 0.118 |  | inactive: -0.178 | inactive: -0.093 | inactive: -0.092 | inactive: 0.016 | inactive: -0.026 |
| AP3D1 isoform 2 (UniProt O14617) | inactive: 0.25 |  | inactive: -0.06 | inactive: 0.078 |  |  |  | inactive: 0.087 | inactive: 0.084 |  |  | inactive: 0.19 |  | inactive: -0.429 |  |  |  | inactive: -0.084 | inactive: 0.093 | inactive: 0.111 |
| ALG12 (UniProt Q9BV10) | inactive: -0.004 | inactive: 0.071 | inactive: 0.031 | inactive: -0.064 | inactive: 0.13 | inactive: 0.024 | inactive: -0.06 | inactive: 0.043 | inactive: -0.038 | inactive: 0.053 |  | inactive: -0.016 | inactive: 0.071 | inactive: 0.07 | inactive: -0.043 |  | inactive: -0.167 | inactive: 0.097 |  |  |
| ANXA13 isoform 2 (UniProt P27216) | inactive: -0.121 | inactive: -0.072 | inactive: -0.059 | inactive: -0.036 | inactive: -0.369 |  |  | inactive: 0.034 | inactive: -0.111 | inactive: -0.03 | inactive: 0.011 | inactive: 0.057 | inactive: -0.116 | active: 0.545 |  | inactive: 0.038 | inactive: -0.195 | inactive: 0.284 | inactive: 0.047 | inactive: 0.085 |
| AMDHD2 (UniProt Q9Y303) | inactive: 0.012 |  |  | inactive: -0.059 |  |  |  |  |  |  | inactive: -0.056 | inactive: 0.052 |  | inactive: -0.015 |  | inactive: 0.057 |  | inactive: 0.065 |  |  |

Part of the list above, comma-delimited:
Target,log2 fold change [1],log2 fold change [2],log2 fold change [3],log2 fold change [4],log2 fold change [5],log2 fold change [6],log2 fold change [7],log2 fold change [8],log2 fold change [9],log2 fold change [10],log2 fold change [11],log2 fold change [12],log2 fold change [13],log2 fold change [14],log2 fold change [15],log2 fold change [16],log2 fold change [17],log2 fold change [18],log2 fold change [19],log2 fold change [20]
ANK2 (UniProt Q01484),inactive: 0.098,inactive: 0.038,,,inactive: 0.128,,,,,inactive: 0.149,inactive: -0.018,inactive: 0.019,inactive: 0,inactive: -0.224,,inactive: -0.064,inactive: 0.223,inactive: -0.018,inactive: 0.062,inactive: -0.02
AP3D1 isoform 2 (UniProt O14617),inactive: 0.25,,inactive: -0.06,inactive: 0.078,,,,inactive: 0.087,inactive: 0.084,,,inactive: 0.19,,inactive: -0.429,,,,inactive: -0.084,inactive: 0.093,inactive: 0.111
